# Measured values from the supplement of paper PMC12819154, “High-throughput peptide-centric local stability assay extends protein–ligand identification to membrane proteins, tissues and bacteria” (Nature Structural & Molecular Biology, 2025).
# Sequences of proteins named here, by UniProt entry; tags and fusion partners are left off. A change or cut given only in a name is not applied to a line headed by its entry.
# UniProt Q00899, whole entry: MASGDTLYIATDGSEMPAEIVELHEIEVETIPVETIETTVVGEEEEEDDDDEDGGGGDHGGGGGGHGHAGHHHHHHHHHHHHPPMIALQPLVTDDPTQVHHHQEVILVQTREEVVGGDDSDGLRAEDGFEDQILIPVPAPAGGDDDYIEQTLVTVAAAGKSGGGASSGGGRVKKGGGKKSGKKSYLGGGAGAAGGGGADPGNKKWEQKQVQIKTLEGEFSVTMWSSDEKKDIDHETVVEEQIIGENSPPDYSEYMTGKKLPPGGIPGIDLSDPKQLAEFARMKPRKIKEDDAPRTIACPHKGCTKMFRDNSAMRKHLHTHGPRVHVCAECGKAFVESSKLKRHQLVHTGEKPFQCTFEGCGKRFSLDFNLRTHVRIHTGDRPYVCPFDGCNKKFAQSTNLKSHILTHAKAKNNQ
# UniProt Q2VLH6: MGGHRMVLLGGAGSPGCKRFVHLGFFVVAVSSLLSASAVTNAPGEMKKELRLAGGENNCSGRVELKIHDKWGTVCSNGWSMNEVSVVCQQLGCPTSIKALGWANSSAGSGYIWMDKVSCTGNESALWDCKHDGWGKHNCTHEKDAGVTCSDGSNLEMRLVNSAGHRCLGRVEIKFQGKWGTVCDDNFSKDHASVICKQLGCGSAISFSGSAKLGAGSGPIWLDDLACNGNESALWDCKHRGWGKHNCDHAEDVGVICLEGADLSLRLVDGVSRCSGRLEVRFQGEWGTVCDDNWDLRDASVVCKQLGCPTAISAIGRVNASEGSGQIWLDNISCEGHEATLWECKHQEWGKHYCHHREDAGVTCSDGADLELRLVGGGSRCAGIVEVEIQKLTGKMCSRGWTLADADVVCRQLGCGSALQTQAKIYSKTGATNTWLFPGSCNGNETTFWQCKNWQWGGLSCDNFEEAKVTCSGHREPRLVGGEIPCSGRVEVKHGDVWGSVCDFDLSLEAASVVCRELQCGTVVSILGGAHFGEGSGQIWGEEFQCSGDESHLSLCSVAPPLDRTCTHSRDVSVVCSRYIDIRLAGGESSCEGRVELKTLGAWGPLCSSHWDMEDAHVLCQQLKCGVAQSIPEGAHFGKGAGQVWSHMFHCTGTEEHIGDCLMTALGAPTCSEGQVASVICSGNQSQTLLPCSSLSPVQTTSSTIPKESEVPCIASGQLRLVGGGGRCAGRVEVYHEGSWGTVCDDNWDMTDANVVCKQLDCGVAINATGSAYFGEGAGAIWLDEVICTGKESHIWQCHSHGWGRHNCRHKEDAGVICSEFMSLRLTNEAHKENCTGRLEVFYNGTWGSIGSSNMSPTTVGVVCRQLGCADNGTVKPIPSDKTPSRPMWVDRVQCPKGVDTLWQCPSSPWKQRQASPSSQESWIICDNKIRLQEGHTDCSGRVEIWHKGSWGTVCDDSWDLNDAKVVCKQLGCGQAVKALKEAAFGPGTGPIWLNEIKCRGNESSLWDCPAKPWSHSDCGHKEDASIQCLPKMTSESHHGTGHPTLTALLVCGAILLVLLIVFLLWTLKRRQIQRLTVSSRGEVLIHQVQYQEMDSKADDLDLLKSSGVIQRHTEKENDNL
# UniProt Q18PI6: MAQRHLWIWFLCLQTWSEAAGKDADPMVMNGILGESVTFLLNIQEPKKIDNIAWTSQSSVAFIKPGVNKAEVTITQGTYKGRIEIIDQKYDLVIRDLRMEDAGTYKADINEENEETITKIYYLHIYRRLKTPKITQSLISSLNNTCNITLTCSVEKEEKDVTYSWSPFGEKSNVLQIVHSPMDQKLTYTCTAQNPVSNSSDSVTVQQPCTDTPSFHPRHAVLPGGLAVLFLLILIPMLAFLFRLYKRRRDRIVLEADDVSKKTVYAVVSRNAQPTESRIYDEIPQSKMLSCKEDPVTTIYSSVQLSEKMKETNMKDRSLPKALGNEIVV
# UniProt Q02248, whole entry: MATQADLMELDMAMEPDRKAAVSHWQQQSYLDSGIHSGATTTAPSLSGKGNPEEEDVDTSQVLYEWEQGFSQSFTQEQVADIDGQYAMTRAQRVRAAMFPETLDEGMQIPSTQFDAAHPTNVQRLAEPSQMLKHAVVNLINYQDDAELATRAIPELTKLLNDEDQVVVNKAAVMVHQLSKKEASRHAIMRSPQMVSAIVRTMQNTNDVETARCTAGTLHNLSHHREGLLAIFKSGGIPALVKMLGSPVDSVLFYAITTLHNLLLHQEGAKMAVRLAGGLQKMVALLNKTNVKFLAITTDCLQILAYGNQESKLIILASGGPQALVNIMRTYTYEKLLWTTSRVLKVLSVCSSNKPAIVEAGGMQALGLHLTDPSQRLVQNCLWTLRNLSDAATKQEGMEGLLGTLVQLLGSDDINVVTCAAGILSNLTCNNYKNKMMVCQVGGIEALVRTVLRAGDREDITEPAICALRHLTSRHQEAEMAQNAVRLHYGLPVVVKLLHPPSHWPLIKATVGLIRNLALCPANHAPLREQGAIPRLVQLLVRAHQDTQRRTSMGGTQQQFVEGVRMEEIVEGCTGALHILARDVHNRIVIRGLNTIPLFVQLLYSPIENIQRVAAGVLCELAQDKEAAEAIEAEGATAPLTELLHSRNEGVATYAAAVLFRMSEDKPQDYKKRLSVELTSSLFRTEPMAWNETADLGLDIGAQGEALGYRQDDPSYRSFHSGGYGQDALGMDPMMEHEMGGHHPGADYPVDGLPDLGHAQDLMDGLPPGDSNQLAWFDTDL
# UniProt Q3UHH2: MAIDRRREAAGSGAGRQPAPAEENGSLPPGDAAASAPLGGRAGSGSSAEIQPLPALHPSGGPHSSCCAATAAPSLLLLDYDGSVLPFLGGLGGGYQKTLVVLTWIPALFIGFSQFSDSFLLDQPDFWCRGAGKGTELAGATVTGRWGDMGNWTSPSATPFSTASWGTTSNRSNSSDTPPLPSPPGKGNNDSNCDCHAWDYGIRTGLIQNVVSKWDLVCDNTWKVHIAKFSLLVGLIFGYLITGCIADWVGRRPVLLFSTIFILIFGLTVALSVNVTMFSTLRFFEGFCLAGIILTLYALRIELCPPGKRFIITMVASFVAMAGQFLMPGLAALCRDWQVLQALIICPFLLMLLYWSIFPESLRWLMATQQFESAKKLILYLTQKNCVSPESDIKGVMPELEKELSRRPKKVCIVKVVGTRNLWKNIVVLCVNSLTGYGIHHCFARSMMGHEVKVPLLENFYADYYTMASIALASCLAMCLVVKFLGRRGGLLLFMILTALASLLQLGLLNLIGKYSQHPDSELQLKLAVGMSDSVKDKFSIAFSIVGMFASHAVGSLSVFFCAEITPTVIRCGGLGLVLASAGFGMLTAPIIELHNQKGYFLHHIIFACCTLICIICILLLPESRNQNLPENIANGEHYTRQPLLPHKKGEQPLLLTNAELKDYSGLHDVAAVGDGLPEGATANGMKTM
# UniProt Q3URS9: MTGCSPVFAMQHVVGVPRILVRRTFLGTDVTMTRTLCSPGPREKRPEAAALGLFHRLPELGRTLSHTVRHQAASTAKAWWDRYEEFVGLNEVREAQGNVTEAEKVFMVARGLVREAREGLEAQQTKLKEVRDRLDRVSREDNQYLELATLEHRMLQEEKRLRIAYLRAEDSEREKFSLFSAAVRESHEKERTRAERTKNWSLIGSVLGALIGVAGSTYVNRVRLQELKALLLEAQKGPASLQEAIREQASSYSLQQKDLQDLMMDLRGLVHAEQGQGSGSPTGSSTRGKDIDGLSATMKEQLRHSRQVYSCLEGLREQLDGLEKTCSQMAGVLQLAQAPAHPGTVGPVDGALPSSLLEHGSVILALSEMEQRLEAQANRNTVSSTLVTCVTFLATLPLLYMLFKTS
# UniProt Q3UZ39: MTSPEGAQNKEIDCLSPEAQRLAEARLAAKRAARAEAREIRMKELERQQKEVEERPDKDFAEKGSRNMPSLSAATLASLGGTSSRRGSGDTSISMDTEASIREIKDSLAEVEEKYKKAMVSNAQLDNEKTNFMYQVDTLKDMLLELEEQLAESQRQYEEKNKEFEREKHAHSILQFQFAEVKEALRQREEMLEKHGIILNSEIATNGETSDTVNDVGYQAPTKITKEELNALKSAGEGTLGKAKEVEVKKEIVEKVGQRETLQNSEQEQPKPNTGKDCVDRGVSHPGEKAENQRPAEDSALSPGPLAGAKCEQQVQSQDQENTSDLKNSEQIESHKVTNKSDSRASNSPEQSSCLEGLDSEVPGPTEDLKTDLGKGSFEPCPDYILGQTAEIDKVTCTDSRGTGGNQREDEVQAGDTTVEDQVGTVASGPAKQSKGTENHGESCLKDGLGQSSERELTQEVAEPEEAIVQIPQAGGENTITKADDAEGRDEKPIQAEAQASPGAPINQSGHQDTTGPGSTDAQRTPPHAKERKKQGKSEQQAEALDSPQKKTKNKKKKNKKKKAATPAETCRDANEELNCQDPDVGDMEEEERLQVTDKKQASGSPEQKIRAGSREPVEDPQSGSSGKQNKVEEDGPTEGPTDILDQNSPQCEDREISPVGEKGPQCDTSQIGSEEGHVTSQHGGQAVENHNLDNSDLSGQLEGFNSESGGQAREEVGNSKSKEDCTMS
# UniProt P97872: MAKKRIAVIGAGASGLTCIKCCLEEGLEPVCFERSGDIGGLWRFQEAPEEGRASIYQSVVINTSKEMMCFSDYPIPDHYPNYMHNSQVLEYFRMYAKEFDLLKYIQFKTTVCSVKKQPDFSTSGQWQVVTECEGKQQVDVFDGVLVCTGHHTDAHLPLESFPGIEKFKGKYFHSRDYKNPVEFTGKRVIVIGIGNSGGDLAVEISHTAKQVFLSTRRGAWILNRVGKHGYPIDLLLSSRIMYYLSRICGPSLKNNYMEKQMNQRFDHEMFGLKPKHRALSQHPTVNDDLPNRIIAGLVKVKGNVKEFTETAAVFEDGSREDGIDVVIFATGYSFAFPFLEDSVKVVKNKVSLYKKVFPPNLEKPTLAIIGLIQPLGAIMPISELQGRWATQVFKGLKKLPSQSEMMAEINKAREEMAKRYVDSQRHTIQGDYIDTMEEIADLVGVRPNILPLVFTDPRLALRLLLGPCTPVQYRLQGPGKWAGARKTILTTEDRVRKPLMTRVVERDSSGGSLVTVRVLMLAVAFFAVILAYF
# UniProt P97823: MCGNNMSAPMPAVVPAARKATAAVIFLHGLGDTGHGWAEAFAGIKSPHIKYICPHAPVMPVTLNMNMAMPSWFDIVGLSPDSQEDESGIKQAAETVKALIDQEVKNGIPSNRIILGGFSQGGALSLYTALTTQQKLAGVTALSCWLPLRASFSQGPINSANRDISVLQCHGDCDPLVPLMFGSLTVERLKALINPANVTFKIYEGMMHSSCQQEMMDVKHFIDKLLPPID
# UniProt Q3UNZ8: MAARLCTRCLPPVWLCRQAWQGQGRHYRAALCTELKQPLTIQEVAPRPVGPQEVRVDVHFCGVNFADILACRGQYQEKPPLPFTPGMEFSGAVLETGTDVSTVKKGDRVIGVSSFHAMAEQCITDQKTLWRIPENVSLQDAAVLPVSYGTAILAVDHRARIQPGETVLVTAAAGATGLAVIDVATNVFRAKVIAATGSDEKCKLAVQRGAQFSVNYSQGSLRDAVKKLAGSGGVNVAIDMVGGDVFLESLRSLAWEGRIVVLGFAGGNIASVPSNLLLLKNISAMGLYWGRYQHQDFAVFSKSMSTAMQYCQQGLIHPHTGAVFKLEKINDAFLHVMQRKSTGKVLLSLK
# UniProt Q3TL44, whole entry: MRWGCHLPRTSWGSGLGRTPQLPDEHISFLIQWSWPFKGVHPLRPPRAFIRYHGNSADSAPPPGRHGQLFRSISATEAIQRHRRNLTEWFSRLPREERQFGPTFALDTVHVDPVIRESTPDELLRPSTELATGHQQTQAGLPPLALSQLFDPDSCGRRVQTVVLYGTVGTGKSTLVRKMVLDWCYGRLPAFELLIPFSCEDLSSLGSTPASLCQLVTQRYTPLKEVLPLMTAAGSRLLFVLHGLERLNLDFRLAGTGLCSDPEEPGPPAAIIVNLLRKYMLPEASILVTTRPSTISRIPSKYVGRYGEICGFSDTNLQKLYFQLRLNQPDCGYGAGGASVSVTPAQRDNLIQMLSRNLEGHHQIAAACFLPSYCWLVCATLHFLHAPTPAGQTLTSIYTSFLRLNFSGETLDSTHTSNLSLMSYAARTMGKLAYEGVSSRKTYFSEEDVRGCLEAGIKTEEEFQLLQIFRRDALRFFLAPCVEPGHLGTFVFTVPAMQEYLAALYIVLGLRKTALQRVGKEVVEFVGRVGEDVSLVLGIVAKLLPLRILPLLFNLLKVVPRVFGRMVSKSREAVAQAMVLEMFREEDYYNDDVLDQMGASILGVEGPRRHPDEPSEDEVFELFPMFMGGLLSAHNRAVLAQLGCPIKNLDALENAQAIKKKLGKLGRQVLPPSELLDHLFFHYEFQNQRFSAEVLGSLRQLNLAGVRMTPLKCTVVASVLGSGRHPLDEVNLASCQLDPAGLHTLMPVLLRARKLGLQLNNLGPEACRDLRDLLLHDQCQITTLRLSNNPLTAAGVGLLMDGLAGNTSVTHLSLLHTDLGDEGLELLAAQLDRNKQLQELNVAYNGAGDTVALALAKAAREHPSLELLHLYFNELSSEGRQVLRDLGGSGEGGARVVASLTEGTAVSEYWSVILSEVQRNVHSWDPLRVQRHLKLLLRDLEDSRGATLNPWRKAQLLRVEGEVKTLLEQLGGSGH
# The other results are listed elsewhere or left out. Most entries show no effect beyond the scatter of the controls.
# Compound: CN[C@@H]1C[C@H]2O[C@@](C)([C@@H]1OC)n1c3ccccc3c3c4c(c5c6ccccc6n2c5c31)C(=O)NC4 [staurosporine]
# Experiment: log2 fold change of pooled soluble protein (PISA), ligand vs vehicle (log2 ratio); higher = more thermally stabilized
# Settings: ligand concentration: 20 uM; assay format: PISA pool 52.9/55.5/58.6 C
row,Target,log2 fold change of pooled soluble protein
1,UniProt Q05D44,0.0577
2,UniProt Q00899,0.275
3,UniProt Q3UI43,0.0381
4,UniProt Q2VLH6,0.00477
5,UniProt Q3V3R4,-0.0202
6,UniProt Q07079,-0.175
7,UniProt Q571I9,-0.00357
8,UniProt P99029,0.00486
9,UniProt Q07076,-0.0737
10,UniProt Q3T9X0,-0.0343
11,UniProt Q18PI6,0.0895
12,UniProt P98192,-0.282
13,UniProt Q3UJU9,0.0367
14,UniProt Q3UBZ5,0.0501
15,UniProt Q3UPL0,0.106
16,UniProt Q02248,-0.0998
17,UniProt Q3UHH2,-0.0342
18,UniProt Q3UDK1,-0.0495

row,Target,log2 fold change of pooled soluble protein
1,UniProt Q5I012,-0.23
2,UniProt Q5DTM8,-0.0133
3,UniProt P97868,-0.109
4,UniProt Q569Z6,-0.0807
5,UniProt Q3URS9,-0.151
6,UniProt Q04750,-0.0459
7,UniProt Q3UZ39,0.000771
8,UniProt P97872,-0.0766
9,UniProt Q3V1L4,-0.00306
10,UniProt Q3UZA1,-0.00135
11,UniProt P97823,0.025
12,UniProt Q505F5,0.0538
13,UniProt Q3UVG3,-0.135
14,UniProt Q3UNZ8,-0.213
15,UniProt Q3TL44,-0.0568
16,UniProt Q03265,-0.0136
17,UniProt Q3UUI3,0.0176
18,UniProt Q3UP75,0.158

# 2 neighbouring entries from above:
row,Target,log2 fold change of pooled soluble protein
16,UniProt Q03265,-0.0136
17,UniProt Q3UUI3,0.0176
